Data published in PubChem BioAssay AID2662 (National Center for Advancing Translational Sciences (NCATS), 2010).
Hit rate of the full screen: of about 290,000 compounds, about 110 (0.038%) were called active. The shares of active, inactive and inconclusive entries below differ from those in the screen. The call rests on the fitted dose curve; in most records, active means well fitted inhibition curve with a large enough effect in the polarisation, with a control signal flat (not every such curve was filed as active); inconclusive means small, poorly fitted or top-dose-only effect, or effect the other way, or a change in a side signal; inactive means no such curve, though single readings can be large or run the other way; the % refers to the polarisation. Potencies of inconclusive entries are doubtful fits and often do not repeat. “Side channel” marks fits to a control or component signal instead of the main read-out.

Protein sequences, listed by entry. Tags and fused reporters are not part of them.
UniProt Q03164, whole entry, looked up: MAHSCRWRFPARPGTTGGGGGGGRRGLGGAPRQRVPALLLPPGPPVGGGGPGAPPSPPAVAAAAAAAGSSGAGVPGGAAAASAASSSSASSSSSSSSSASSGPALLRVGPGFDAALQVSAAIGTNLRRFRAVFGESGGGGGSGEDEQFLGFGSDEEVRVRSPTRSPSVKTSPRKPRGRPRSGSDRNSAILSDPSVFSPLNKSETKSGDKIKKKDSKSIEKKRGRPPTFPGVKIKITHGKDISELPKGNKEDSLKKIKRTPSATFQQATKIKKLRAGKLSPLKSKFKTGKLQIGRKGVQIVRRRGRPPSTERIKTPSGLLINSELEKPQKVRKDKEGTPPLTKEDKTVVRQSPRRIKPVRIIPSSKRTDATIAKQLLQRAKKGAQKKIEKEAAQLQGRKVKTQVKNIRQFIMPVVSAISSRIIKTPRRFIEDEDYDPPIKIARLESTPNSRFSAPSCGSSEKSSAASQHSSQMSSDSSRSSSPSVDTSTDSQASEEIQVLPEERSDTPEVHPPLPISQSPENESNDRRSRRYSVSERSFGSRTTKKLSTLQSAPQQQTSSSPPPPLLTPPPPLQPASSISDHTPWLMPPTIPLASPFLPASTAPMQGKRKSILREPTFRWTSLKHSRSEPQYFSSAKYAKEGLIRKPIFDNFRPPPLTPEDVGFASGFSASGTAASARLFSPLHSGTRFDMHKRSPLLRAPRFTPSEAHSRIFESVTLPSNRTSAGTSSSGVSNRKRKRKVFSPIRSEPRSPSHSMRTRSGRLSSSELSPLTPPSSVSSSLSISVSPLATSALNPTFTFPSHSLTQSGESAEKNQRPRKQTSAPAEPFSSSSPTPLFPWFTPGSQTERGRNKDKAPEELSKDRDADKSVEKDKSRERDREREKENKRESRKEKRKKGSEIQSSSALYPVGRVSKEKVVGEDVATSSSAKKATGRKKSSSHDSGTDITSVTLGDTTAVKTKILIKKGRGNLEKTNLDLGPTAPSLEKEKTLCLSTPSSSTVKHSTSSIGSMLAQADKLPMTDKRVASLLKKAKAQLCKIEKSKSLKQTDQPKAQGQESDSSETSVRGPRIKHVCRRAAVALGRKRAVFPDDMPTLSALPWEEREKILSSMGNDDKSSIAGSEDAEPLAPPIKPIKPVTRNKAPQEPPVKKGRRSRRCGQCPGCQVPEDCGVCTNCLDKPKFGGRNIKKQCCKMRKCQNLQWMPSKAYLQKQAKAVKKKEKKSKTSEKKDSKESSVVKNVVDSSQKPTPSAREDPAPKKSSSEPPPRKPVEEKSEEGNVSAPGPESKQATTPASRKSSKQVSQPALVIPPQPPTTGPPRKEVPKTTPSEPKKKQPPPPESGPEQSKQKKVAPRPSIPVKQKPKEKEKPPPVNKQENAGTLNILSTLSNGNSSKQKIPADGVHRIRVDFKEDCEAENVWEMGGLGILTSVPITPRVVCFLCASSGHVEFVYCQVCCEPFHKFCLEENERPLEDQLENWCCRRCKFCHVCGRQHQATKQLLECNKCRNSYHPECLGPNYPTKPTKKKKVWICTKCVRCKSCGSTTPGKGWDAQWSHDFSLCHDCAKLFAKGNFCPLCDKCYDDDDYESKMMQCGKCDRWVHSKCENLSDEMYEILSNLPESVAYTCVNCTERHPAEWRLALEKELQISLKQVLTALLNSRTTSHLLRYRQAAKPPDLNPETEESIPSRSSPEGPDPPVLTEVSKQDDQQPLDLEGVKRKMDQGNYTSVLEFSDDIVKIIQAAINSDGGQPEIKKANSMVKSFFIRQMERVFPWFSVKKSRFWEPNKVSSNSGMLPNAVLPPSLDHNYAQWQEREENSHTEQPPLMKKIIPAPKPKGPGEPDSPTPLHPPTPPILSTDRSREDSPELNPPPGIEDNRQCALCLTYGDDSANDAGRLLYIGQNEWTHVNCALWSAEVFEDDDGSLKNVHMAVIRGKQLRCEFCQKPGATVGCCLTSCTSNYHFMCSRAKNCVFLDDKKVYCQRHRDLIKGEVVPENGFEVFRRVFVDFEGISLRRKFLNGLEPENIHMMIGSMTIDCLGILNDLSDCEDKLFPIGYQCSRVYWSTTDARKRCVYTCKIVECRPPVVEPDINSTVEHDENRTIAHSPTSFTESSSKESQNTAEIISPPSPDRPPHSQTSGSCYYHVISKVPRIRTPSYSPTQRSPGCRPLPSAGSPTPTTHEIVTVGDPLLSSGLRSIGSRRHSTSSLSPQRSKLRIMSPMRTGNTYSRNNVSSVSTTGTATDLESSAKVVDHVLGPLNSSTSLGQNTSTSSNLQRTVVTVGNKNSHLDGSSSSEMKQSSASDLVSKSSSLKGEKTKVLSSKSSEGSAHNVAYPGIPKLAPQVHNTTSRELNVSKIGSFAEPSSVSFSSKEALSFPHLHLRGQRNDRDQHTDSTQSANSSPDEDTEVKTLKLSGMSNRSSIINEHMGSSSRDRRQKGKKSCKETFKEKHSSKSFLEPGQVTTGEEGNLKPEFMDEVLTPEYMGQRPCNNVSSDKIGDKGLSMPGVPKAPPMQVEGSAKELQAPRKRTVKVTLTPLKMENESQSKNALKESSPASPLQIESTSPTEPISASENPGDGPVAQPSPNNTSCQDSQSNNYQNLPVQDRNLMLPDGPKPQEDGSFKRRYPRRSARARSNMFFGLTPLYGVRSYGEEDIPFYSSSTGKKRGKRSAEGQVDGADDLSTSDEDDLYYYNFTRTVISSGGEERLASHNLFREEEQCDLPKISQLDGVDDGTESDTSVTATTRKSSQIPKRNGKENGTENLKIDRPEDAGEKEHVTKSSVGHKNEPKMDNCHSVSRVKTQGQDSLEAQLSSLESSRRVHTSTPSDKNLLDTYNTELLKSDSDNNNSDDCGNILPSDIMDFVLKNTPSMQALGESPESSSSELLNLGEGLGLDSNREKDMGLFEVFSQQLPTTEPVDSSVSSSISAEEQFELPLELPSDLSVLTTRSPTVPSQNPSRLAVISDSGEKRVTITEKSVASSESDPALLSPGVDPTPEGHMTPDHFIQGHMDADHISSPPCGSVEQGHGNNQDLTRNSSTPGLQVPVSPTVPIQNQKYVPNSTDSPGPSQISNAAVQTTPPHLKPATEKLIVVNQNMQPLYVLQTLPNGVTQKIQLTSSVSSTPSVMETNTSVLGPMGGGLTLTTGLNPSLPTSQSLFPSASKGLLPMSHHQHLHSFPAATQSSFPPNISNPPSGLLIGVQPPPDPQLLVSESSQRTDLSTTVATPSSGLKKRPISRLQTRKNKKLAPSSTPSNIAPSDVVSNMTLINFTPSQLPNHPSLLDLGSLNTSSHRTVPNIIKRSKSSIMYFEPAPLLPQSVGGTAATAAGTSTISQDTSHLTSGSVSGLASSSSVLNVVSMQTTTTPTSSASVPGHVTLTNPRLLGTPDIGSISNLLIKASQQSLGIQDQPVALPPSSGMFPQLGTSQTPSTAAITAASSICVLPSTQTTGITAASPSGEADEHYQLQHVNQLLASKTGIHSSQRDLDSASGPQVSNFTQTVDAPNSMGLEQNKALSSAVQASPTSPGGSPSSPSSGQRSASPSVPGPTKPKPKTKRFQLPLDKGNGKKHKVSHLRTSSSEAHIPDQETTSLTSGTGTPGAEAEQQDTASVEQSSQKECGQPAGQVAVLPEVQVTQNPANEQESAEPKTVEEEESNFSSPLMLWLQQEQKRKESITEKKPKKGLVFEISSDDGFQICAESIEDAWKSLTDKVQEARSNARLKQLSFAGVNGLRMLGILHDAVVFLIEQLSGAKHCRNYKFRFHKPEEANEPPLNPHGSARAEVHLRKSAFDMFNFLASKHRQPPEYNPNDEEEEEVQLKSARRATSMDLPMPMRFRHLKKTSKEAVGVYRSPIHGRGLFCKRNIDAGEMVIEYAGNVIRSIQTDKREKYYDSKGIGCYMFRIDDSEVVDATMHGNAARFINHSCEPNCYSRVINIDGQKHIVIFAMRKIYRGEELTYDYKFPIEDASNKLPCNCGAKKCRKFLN

The molecules below were run against Histone-lysine N-methyltransferase 2A (Homo sapiens) (UniProt Q03164) (assay: qHTS Fluorescence Polarization Assay for Inhibitors of MLL CXXC domain - DNA interaction). Conditions: MLL-CXXC / FITC-HOXA9 DNA fluorescence polarization; series mostly up to 115 µM.
Procedure, shortened: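 Steps: dispense CXXC domain solution (7 uM) → pin compounds or unlabeled HOX-A9 DNA control → 5 min ambient → add FLSN-HOX-A9 solution (50 nM) → spin → 30 min ambient → fluorescence polarization. Tris pH 7.5/NaCl/DTT/BSA buffer.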
Potency means the concentration at half of the fitted maximal effect.

**Q.** With `Cc1[nH]c2ccccc2c1/C=C/c1nc2ccccc2c(=O)n1CCO` as the molecule, how does the Potency read?
**A.** inconclusive: 79.4 µM [fluorescent, side channel, single point]

**Q.** For `O=C(NC1CCCC1)c1ccc(CSc2nc3ccncc3n2Cc2ccc(F)cc2)cc1`, which Potency is on record?
**A.** inactive

**Q.** For `O=C(COC(=O)c1ncc(Cl)c(Cl)c1Cl)c1ccc(Cl)s1`, which Potency is on record?
**A.** inconclusive: 2.82 µM [fluorescent, side channel, full curve]

**Q.** `CCN1CCN(CCNC(=O)c2ccc(/C=C3/Sc4ccccc4N(Cc4cccc(Cl)c4)C3=O)cc2)CC1` was tested. Which Potency did it give?
**A.** inconclusive: 50.1 µM [quencher, side channel, single point]

**Q.** With `CCOc1cc(S(=O)(=O)N(Cc2ccccc2)Cc2ccccc2)c(OCC)cc1-n1cnnn1` as the molecule, how does the Potency read?
**A.** inactive

**Q.** With `O=C(O)c1ccccc1NC(=O)c1ccccc1Nc1ccccc1` as the molecule, how does the Potency read?
**A.** inconclusive: 8.91 µM [quencher, side channel, single point]

**Q.** How did the Potency turn out when `O=C(Nc1ccccc1C(=O)Nc1ccccc1)c1ccccc1F` was run?
**A.** inactive

**Q.** How did the Potency turn out when `O=c1[nH]cnc2nn(-c3ccccc3)nc12` was run?
**A.** inactive

**Q.** Which Potency does the source give for `Fc1ccc(NC(=S)Nc2cccc(Cl)c2)cc1` here?
**A.** inconclusive: 12.6 µM [quencher, side channel, partial curve]

**Q.** Which Potency does the source give for `CCOC(=O)N1CCN(C(=S)NC(=O)c2ccnn2C)CC1` here?
**A.** inactive

**Q.** How did the Potency turn out when `O=C(OCC(=O)N1CCN(C(=O)c2ccco2)CC1)c1cc(-c2ccco2)nc2ccccc12` was run?
**A.** inconclusive: 31.6 µM [quencher, side channel, single point]

**Q.** With `CCCN(CCC(=O)Nc1cc(OC)cc(OC)c1)CC1CC1` as the molecule, how does the Potency read?
**A.** inactive

**Q.** How did the Potency turn out when `COn1cnnc1-c1ccccc1` was run?
**A.** inactive

**Q.** Which Potency does the source give for `CC1=NN(c2nc3ccccc3[nH]2)C(=O)C1Cc1ccccc1` (stereo unspecified) here?
**A.** inactive

**Q.** For `CCOC(=O)C1=NN(C(=O)c2ccc(C)cc2)C(O)(c2ccc(Cl)cc2)C1` (stereo unspecified), which Potency is on record?
**A.** inconclusive: 44.7 µM [fluorescent, side channel, partial curve]

**Q.** With `O=C(Nc1cccc(C(F)(F)F)c1)c1cccnc1NCCO` as the molecule, how does the Potency read?
**A.** inactive

**Q.** For `CC(C)CNC(=O)c1cccc(NC(=O)COc2ccc([N+](=O)[O-])cc2)c1`, which Potency is on record?
**A.** inactive

**Q.** `O=C(Nc1ccc(S(=O)(=O)Nc2cnc3ccccc3n2)cc1)c1ccc(Cl)c([N+](=O)[O-])c1` was tested. Which Potency did it give?
**A.** inconclusive: 3.98 µM [inhibitor, full curve]

**Q.** With `CCOc1ccccc1/C=N/Nc1ccccc1[N+](=O)[O-]` as the molecule, how does the Potency read?
**A.** inconclusive: 89.1 µM [inhibitor, single point]

**Q.** For `O=C(O)c1ccccc1-c1c2ccc(=O)cc-2oc2cc(O)ccc12`, which Potency is on record?
**A.** inconclusive: 79.4 µM [fluorescent, side channel, partial curve, poor fit]

**Q.** For `CCN(CC)c1nc2ccccc2n2cnnc12`, which Potency is on record?
**A.** inactive

**Q.** With `Cc1ccc(C)c(NC(=O)CS(=O)(=O)c2c[nH]c3ccccc23)c1` as the molecule, how does the Potency read?
**A.** inactive

**Q.** `CCn1c(C)c(C(C)=O)c(N2CCN(c3ccc(OC)cc3)CC2)nc1=S` was tested. Which Potency did it give?
**A.** inconclusive: 11.2 µM [fluorescent, side channel, partial curve]

**Q.** How did the Potency turn out when `CC[n+]1c(/C=C/C=C/N(C(C)=O)c2ccccc2)sc2cc(OC)ccc21` was run?
**A.** inconclusive: 20 µM [fluorescent, side channel, partial curve]

**Q.** How did the Potency turn out when `Cc1cc2oc(C(=O)NC3CCS(=O)(=O)C3)c(C)c2cc1C` (stereo unspecified) was run?
**A.** inactive

**Q.** `COc1ccc(C(=O)/C=C2\NCCc3cc(OC)c(OC)cc32)cc1OC` was tested. Which Potency did it give?
**A.** inconclusive: 7.94 µM [fluorescent, side channel, single point]

**Q.** With `CCN(CC)c1ccc(/C=C2\SC(=O)N(C(C)C)C2=O)o1` as the molecule, how does the Potency read?
**A.** inconclusive: 8.91 µM [fluorescent, side channel, full curve]

**Q.** Which Potency does the source give for `COC(=O)C1=C(C(=O)c2ccc(C)cc2)C(c2ccc(O)c(OC)c2)n2nnnc2N1` (stereo unspecified) here?
**A.** inconclusive: 70.8 µM [fluorescent, side channel, single point]

**Q.** For `O=C(O/N=C\c1ccc(N2CCCCC2)c([N+](=O)[O-])c1)c1c(F)cccc1F`, which Potency is on record?
**A.** inactive

**Q.** For `CCOC(=O)NC(=O)/C(N=Nc1cc(C)cc(C)c1)=C(\C)O`, which Potency is on record?
**A.** inconclusive: 15.8 µM [inhibitor, single point]

**Q.** With `O=C(NNC(=S)Nc1ccc(F)c(Cl)c1)c1ccccc1Br` as the molecule, how does the Potency read?
**A.** inconclusive: 89.1 µM [inhibitor, single point]

**Q.** For `CCOc1ccc(Nc2c3ccccc3nc3ccccc23)cc1`, which Potency is on record?
**A.** inconclusive: 25.1 µM [quencher, side channel, partial curve]

**Q.** `COc1ccc(NC(=O)c2oc3ccccc3c2NC(=O)c2ccco2)cc1` was tested. Which Potency did it give?
**A.** inactive

**Q.** For `Cc1nc2cccc(C(=O)NCc3ccccc3)c2o1`, which Potency is on record?
**A.** inconclusive: 14.1 µM [inhibitor, partial curve]

**Q.** How did the Potency turn out when `CCOC(=O)C(=Cc1ccc(F)cc1)C(=O)OCC` was run?
**A.** inactive

**Q.** For `COc1ccc(CCNC(=O)Cn2nnc(C(=O)Nc3ccc(Br)cc3)c2N)cc1OC`, which Potency is on record?
**A.** inactive

**Q.** For `CCN1c2ccccc2NC2C1C(C(C)=O)C(=O)N2c1ccc(Cl)cc1` (stereo unspecified), which Potency is on record?
**A.** inactive

**Q.** `COc1ccc(NC2=NCCC(=O)N2Cc2cccs2)cc1` was tested. Which Potency did it give?
**A.** inactive

**Q.** Which Potency does the source give for `O=C1/C(=C/c2ccc(N3CCCC3)cc2)NC(=S)N1C1CC1` here?
**A.** inconclusive: 1.41 µM [fluorescent, side channel, full curve, poor fit]

**Q.** `CCSc1nnc(NC(=O)c2nc(S(=O)(=O)Cc3ccc(F)cc3)ncc2Cl)s1` was tested. Which Potency did it give?
**A.** inconclusive: 31.6 µM [inhibitor, partial curve]

**Q.** For `O=C(c1ccc(Cl)cc1)c1c[nH]c(C(=O)C(Cl)(Cl)Cl)c1`, which Potency is on record?
**A.** inactive

**Q.** With `Cc1occc(=O)c1OCc1c(Cl)cccc1Cl` as the molecule, how does the Potency read?
**A.** inconclusive: 89.1 µM [inhibitor, single point]

**Q.** Which Potency does the source give for `O=C(CCn1nnc2ccccc21)N1CCN(c2ccccc2)CC1` here?
**A.** inactive

**Q.** For `Cc1ccccc1OCC(=O)NCC(=O)N/N=C/C=C/c1ccccc1`, which Potency is on record?
**A.** inconclusive: 89.1 µM [fluorescent, side channel, single point]

**Q.** How did the Potency turn out when `CN(C)CCCNc1cc(-c2ccccc2)nc2cc(-c3cccc(F)c3)nn12` was run?
**A.** inconclusive: 31.6 µM [quencher, side channel, partial curve]

**Q.** `COc1cc(/C=C(\C#N)c2nc3ccccc3[nH]2)ccc1O` was tested. Which Potency did it give?
**A.** inconclusive: 35.5 µM [fluorescent, side channel, partial curve]

**Q.** With `COC(=O)c1c(NC(=O)C2c3ccccc3Oc3ccccc32)sc(C)c1C` as the molecule, how does the Potency read?
**A.** inconclusive: 63.1 µM [fluorescent, side channel, single point]

**Q.** For `COc1ccccc1N(CC(=O)NC1CCCCC1)C(=O)c1csnn1`, which Potency is on record?
**A.** inactive

**Q.** Which Potency does the source give for `COC(CSc1nc(N)c2c3c(sc2n1)CN(C)CC3)OC` here?
**A.** inconclusive: 7.94 µM [fluorescent, side channel, partial curve]

**Q.** With `COc1ccc(N2CC(C(=O)Nc3nc4ccc(F)cc4s3)CC2=O)c(OC)c1` (stereo unspecified) as the molecule, how does the Potency read?
**A.** inconclusive: 5.01 µM [fluorescent, side channel, full curve, poor fit]

**Q.** How did the Potency turn out when `Cc1cccc2cc(CN(Cc3ccco3)C(=O)c3cccs3)c(=O)[nH]c12` was run?
**A.** inconclusive: 20 µM [fluorescent, side channel, partial curve]

**Q.** For `CCN(CC)c1ccc(-c2sc(Nc3ccccc3)n[n+]2-c2ccc(F)cc2)cc1`, which Potency is on record?
**A.** inconclusive: 7.08 µM [fluorescent, side channel, full curve]

**Q.** Which Potency does the source give for `S=c1[nH]nc(Cc2sc(-c3ccccc3)nc2-c2ccccc2)o1` here?
**A.** inconclusive: 50.1 µM [fluorescent, side channel, single point]

**Q.** With `CCOC(=O)c1sc(C(=O)OCC)c(OCCO)c1OCCO` as the molecule, how does the Potency read?
**A.** inconclusive: 3.16 µM [fluorescent, side channel, partial curve]

**Q.** Which Potency does the source give for `CCOC(=O)c1ccc(-c2ccc(/C=N/NC(=O)c3cncc(Br)c3)o2)cc1` here?
**A.** inconclusive: 35.5 µM [fluorescent, side channel, partial curve, poor fit]

**Q.** Which Potency does the source give for `O=C1C=C(Nc2ccccc2C(=O)O)c2ccccc2C1=O` here?
**A.** inconclusive: 35.5 µM [inhibitor, partial curve]

**Q.** For `O=c1c2cc([N+](=O)[O-])cc([N+](=O)[O-])c2[nH]n1-c1ccccc1`, which Potency is on record?
**A.** inconclusive: 63.1 µM [quencher, side channel, single point]

**Q.** Which Potency does the source give for `COc1ccc(NC(=O)c2ocnc2C)cc1OC` here?
**A.** inconclusive: 70.8 µM [fluorescent, side channel, single point]

**Q.** For `CCNc1ccc(Br)cc(C(=O)/C=C/c2ccc(Cl)cc2Cl)c1=O`, which Potency is on record?
**A.** inconclusive: 39.8 µM [inhibitor, single point]

**Q.** `Cc1cccc(-n2c(=O)[nH]c3c(C(N)=O)nc(C(C)C)nc32)c1` was tested. Which Potency did it give?
**A.** inactive

**Q.** Which Potency does the source give for `O=C(O)c1cccc(N2C(=O)c3cc([N+](=O)[O-])cc4cc([N+](=O)[O-])cc(c34)C2=O)c1` here?
**A.** active: 31.6 µM

**Q.** With `COc1ccc(OCCCCN2CCC(C)CC2)cc1` as the molecule, how does the Potency read?
**A.** inconclusive: 14.1 µM [fluorescent, side channel, single point]

**Q.** How did the Potency turn out when `Cc1cc2nc(CS)[nH]c2cc1C` was run?
**A.** inconclusive: 5.62 µM [fluorescent, side channel, partial curve]

**Q.** Which Potency does the source give for `Cn1c(SCC(=O)Nc2ccc3c(c2)n(C)c(=O)n3C)nnc1-c1ccncc1` here?
**A.** inconclusive: 31.6 µM [fluorescent, side channel, single point]

**Q.** How did the Potency turn out when `CC(=O)Nc1ccc(C(=O)N(C2=NC(C)CS2)c2ccc(Cl)cc2)cc1` (stereo unspecified) was run?
**A.** inactive
